This passage reports binding results from article doi:10.1101/2022.09.10.507405.

Substitutions are numbered along the chain they refer to. Names and notes keep the numbering of the source. No constants are given. Whether binding was seen depends on the method and setting. Some entries that bind do so weakly or less than the wild type.

Test in all cases: two-hybrid
In assay [1] the target is T1, human TPR aa 1-102 (human) (UniProt P12270).
T1 sequence: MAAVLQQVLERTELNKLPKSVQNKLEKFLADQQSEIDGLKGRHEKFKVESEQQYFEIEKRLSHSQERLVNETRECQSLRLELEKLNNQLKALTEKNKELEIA

Assay [2] concerns the target T2, human TPR aa 1-111 (human) (UniProt P12270).
T2 sequence: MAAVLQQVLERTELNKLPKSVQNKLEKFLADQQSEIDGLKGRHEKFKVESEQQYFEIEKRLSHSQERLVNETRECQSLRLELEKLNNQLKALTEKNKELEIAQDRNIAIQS

Assay [3] has as its target T3, human TPR aa 1-175 (human) (UniProt P12270).
T3 sequence: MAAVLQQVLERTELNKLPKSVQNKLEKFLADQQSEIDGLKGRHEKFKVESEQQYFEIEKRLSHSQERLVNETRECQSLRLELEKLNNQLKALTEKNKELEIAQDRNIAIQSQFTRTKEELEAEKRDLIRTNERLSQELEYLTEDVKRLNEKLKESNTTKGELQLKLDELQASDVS

In assay [4] the target is T4, human TPR aa 172-651 (human) (UniProt P12270).
T4 sequence: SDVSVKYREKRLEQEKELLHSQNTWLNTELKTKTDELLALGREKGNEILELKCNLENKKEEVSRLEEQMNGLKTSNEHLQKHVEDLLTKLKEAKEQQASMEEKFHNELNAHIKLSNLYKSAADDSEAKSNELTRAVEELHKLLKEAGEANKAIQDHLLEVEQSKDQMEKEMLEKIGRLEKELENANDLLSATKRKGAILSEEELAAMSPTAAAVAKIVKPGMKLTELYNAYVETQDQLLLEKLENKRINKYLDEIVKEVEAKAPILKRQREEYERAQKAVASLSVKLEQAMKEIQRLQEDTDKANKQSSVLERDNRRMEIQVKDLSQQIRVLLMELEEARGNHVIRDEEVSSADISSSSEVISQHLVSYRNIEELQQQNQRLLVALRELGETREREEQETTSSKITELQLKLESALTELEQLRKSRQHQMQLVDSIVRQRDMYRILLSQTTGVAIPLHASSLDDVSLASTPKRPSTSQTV

In assay [5] the target is T5, human TPR aa 275-539 (human) (UniProt P12270).
T5 sequence: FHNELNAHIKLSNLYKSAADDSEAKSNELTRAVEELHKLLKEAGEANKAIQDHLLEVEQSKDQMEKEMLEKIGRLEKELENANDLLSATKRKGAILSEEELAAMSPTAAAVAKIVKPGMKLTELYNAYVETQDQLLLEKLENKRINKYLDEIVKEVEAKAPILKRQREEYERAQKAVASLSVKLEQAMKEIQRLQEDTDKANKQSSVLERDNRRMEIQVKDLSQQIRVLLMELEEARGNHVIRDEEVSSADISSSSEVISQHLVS

Assay [6] concerns the target T6, human TPR aa 386-539 (human) (UniProt P12270).
T6 sequence: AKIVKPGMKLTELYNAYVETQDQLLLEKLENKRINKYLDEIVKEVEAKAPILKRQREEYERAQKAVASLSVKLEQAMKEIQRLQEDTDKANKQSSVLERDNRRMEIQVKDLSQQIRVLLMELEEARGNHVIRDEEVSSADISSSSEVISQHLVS

B1: human ZC3HC1, wild type (protein, UniProt Q86WB0 1-502)
chain: MAAPCEGQAFAVGVEKNWGAVVRSPEGTPQKIRQLIDEGIAPEEGGVDAKDTSATSQSVNGSPQAEQPSLESTSKEAFFSRVETFSSLKWAGKPFELSPLVCAKYGWVTVECDMLKCSSCQAFLCASLQPAFDFDRYKQRCAELKKALCTAHEKFCFWPDSPSPDRFGMLPLDEPAILVSEFLDRFQSLCHLDLQLPSLRPEDLKTMCLTEDKISLLLHLLEDELDHRTDERKTTIKLGSDIQVHVTACILSVCGWACSSSLESMQLSLITCSQCMRKVGLWGFQQIESSMTDLDASFGLTSSPIPGLEGRPERLPLVPESPRRMMTRSQDATFSPGSEQAEKSPGPIVSRTRSWDSSSPVDRPEPEAASPTTRTRPVTRSMGTGDTPGLEVPSSPLRKAKRARLCSSSSSDTSSRSFFDPTSQHRDWCPWVNITLGKESRENGGTEPDASAPAEPGWKAVLTILLAHKQSSQPAETDSMSLSEKSRKVFRIFRQWESLCSC
Regarding B1, the binding entry in assay [1], in assay [2], in assay [3], in assay [4], in assay [5] and in assay [6] was “binds” each time.

B2: human ZC3HC1 C156S (protein, UniProt Q86WB0 1-502)
chain: B1 chain with C156S
With B2, the binding entry in assay [1] and in assay [6] was “no binding” throughout.

B3: human ZC3HC1 C102S (protein, UniProt Q86WB0 1-502)
chain: B1 chain with C102S
In the case of B3, the binding entry in assay [1] and in assay [6] was “binds” each time.

B4: human ZC3HC1 C112S (protein, UniProt Q86WB0 1-502)
chain: B1 chain with C112S
In the case of B4, the binding entry in assay [1] and in assay [6] was “binds” in each case.

B5: human ZC3HC1 C125S (protein, UniProt Q86WB0 1-502)
chain: B1 chain with C125S
Turning to B5, the binding entry in assay [1] and in assay [6] was “binds” each time.

B6: human ZC3HC1 W158A (protein, UniProt Q86WB0 1-502)
chain: B1 chain with W158A
Regarding B6, the binding result in assay [1] and in assay [6] was “binds” in each case.
